The campaign covered roughly 360,000 compounds. About 7,500 (2.1%) were called active. This list was built around the results that the source calls inconclusive (neither active nor inactive); the mix of calls is not that of the screen. The call rests on the fitted dose curve; in most records, active means well fitted inhibition curve with a large enough effect; inconclusive means small, poorly fitted or top-dose-only effect, or effect the other way; inactive means flat fitted curve, though single readings scatter. Where the call is inconclusive, the potency comes from a doubtful curve fit. Peptide text beside a SMILES is read from it. * marks the point of attachment. Boc = CC(C)(C)OC(=O)*
Test: Nrf2 qHTS screen for inhibitors; further: nearly all actives have a fitted effect of over 60% in size
Settings: A549 ARE-Fluc reporter, luciferase luminescence, 18-24 h; activity change, negative = inhibition: at 46 µM (top of the series)
Method in brief: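 Nrf2 function is reported as luminescence of an ARE-controlled luciferase in A549 cells. Compounds were tested at several concentrations, and a CellTiter-Fluor read on the same wells flagged cytotoxicity.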
On the % scale 0 is the no-effect control and ±100 the full control effect; potency means the concentration at half of the fitted maximal effect.

| SMILES | Potency | activity change, negative = inhibition |
| --- | --- | --- |
| CCOC(=O)c1cnc2c(-c3ccccc3)cnn2c1N | inconclusive: 0.231 µM [activator, full curve, poor fit] |  |
| CCOCCn1ccc2c(OCC(=O)Nc3cc(OC)ccc3OC)cccc2c1=O | inconclusive: 20.6 µM [falling, single point] |  |
| CCOC(=O)C(Cc1ccc(O)cc1)NC(=O)CNC(=O)C1CCCN1C(=O)OC(C)(C)C (stereo not drawn) (Boc-Pro-Gly-Tyr-OEt; configuration not given here) | inconclusive: 1.46 µM [activator, full curve, poor fit] |  |
| O=C(OCn1ncc(Cl)c(Cl)c1=O)c1ccccc1Cl | active: 23.1 µM |  |
| COc1ccccc1Nc1nc(NCc2ccco2)c2ccccc2n1 | inconclusive: 29.1 µM [falling, single point] |  |
| O=C(Cc1ccc(NC(=O)C2CCN(C(=O)C3CCCC3)CC2)cc1)Nc1cccc(C(=O)N2CCCCC2)c1 |  | inactive: 6.57% |
| CCOc1cc(N2CCOCC2)c(OCC)cc1NC(C)C(=O)N1CCC(C)CC1 (stereo not given) |  | inactive: 16.5% |
| CCOC(=O)/C(C#N)=N/Nc1c(C)n(C)n(-c2ccccc2)c1=O | inconclusive: 3.66 µM [falling, single point] |  |
| COc1ccc(OC)c(-c2nn(-c3ccccc3)cc2C(=O)N2CCc3ccccc3C2)c1 | inconclusive: 29.1 µM [falling, single point] |  |
| COc1ccc(C2/C(=C(/O)c3ccc(F)cc3)C(=O)C(=O)N2c2ccccn2)cc1OC (stereo not given) | inconclusive: 20.6 µM [activator, single point] |  |
| COc1ccc(CNC(=O)Cn2nnc(-c3ccc(NC(=O)C4CCCCC4)cc3)n2)cc1 | inconclusive: 0.92 µM [activator, full curve, poor fit] |  |
| CC(C)NC(=O)c1ccc2c(c1)N(Cc1ccccc1)C(=O)C(C)(C)O2 | inconclusive: 25.9 µM [falling, single point] |  |
| CCOc1ccc(NC(=O)CSc2nc3[nH]ncc3c(=O)n2-c2ccccc2OC)cc1 | inconclusive: 10.3 µM [falling, partial curve] |  |
| O=C(CCCOc1ccccc1)N1CCN(c2ccc(F)cc2)CC1 | inconclusive: 1.3 µM [activator, full curve, poor fit] |  |
| O=[N+]([O-])c1nn(-c2ccc3c(c2)OCCO3)n(O)c1=NCc1ccccc1Cl | inconclusive: 8.2 µM [activator, partial curve] |  |
| CC(C)CC[n+]1ccn(C2=C([O-])c3ccccc3C(=O)/C2=N\S(=O)(=O)c2ccccc2)c1 | inconclusive: 20.6 µM [falling, single point] |  |
| O=C(Nc1nccs1)c1ccc2c(c1)OCO2 | inconclusive: 0.517 µM [activator, full curve] |  |
| Cc1cc(C)c2cc(C(=O)N3CCN(c4ncccc4C(F)(F)F)CC3)[nH]c2c1 | inconclusive: 20.6 µM [falling, single point] |  |
| Cc1ccc(CNc2ccc(-c3nc(-c4ccccn4)no3)cc2[N+](=O)[O-])cc1 | inconclusive: 29.1 µM [activator, single point] |  |
| Cc1cc(C)cc(Nc2nc3ccccc3c(=O)[nH]2)c1 | inconclusive: 0.92 µM [activator, full curve, poor fit] |  |
| COc1ccc(S(=O)(=O)N2CCN(c3ccc4nnc(-c5ccccc5)n4n3)CC2)cc1 | inconclusive: 20.6 µM [falling, partial curve] |  |
| O=C(CCCN1C(=O)c2ccccc2C1=O)Nc1ccc2c(c1)OCCO2 | inconclusive: 4.61 µM [activator, full curve, poor fit] |  |

| SMILES | Potency | activity change, negative = inhibition |
| --- | --- | --- |
| Cn1cc(CCCC(=O)NCc2ccccc2Cl)c2ccccc21 |  | inactive: -5.37% |
| c1ccc(-c2n[nH]c(-c3ccccc3)c2-c2nc3ccccc3[nH]2)cc1 | inconclusive: 16.4 µM [falling, partial curve, poor fit] |  |
| COCCCN(CC(=O)Nc1ccc(N2CCOCC2)cc1)S(=O)(=O)c1ccccc1 |  | inactive: -6.92% |
| O=C(CCl)NCc1cc(-c2ccc(Cl)cc2)no1 | inconclusive: 8.2 µM [falling, partial curve, poor fit] |  |
| CN(/N=C/c1cc(Br)cc(Br)c1O)c1cccc(C(F)(F)F)n1 | inconclusive: 29.1 µM [falling, single point] |  |
| O=C(NC1CC1)c1cccc(NC(=O)c2cnn(-c3ccccc3)n2)c1 |  | inactive: -6.21% |
| CSc1cccc(NC(=O)Cc2ccccc2[N+](=O)[O-])c1 | inconclusive: 29.1 µM [falling, single point] |  |
| CN(C(=O)C1CCCC1)C1CCS(=O)(=O)C1 (stereo not given) |  | inactive: 9.64% |
| CCNc1nc(SCCOc2ccc(C)cc2)nc(N(C)C)n1 | inconclusive: 29.1 µM [falling, single point] |  |
| COc1ccc(OC)c(NC(=O)N2c3ccccc3Sc3ccccc32)c1 |  | inactive: -1.95% |
| c1ccc2sc(NN=C3CCCCCC3)nc2c1 | inconclusive: 20.6 µM [activator, partial curve] |  |
| O=C(NCc1ccccc1Cl)c1ccc(Nc2nc3ccccc3n3nnnc23)cc1 | inconclusive: 0.517 µM [falling, partial curve, poor fit] |  |
| COC(=O)c1ccc(C2/C(=C(/O)c3ccc(OC(C)C)cc3)C(=O)C(=O)N2c2cc(C)on2)cc1 (stereo not given) | inconclusive: 9.2 µM [falling, partial curve, poor fit] |  |
| Cc1ccccc1-n1c(=O)[nH]c(=O)c2c(N)c(C(=O)c3ccc(Cl)cc3)sc21 | inconclusive: 11.6 µM [falling, partial curve] |  |
| O=C(COc1ccccc1[N+](=O)[O-])Nc1cccc(S(=O)(=O)N2CCCC2)c1 | inconclusive: 18.4 µM [falling, single point] |  |
| O=C(NC(=S)NCc1ccccc1Cl)c1cccs1 | inconclusive: 20.6 µM [falling, partial curve, poor fit] |  |
| c1coc(CN(Cc2ccco2)c2ncnc3c2oc2ccccc23)c1 | inconclusive: 23.1 µM [falling, single point] |  |
| O=C(CNc1cccc(F)c1)N1CCc2ccccc2C1 | inconclusive: 8.2 µM [activator, partial curve] |  |
| Cc1ccsc1C(=O)N/N=C/c1ccc([N+](=O)[O-])cc1 | inconclusive: 1.16 µM [activator, full curve] |  |
| CCN(CC)c1ccc(NC(=O)C2CCC(CNc3c(N4CCCC4)c(=O)c3=O)CC2)c(C)c1 (stereo not given) | inconclusive: 25.9 µM [falling, single point] |  |
| Cc1ccc2[nH]c(=O)c(CN(Cc3ccco3)C(=O)N3CCOCC3)cc2c1 | inconclusive: 5.17 µM [falling, single point] |  |
| CC[C@@]1(C(=O)OC)N[C@H](CN(C)C(=O)c2ccc(C)cc2)[C@@H]2C(=O)N(Cc3ccccc3)C(=O)[C@@H]21 |  | inactive: -9.97% |

Molecules from the list above with an aryl thioether with sulfur outside any ring (three):

| SMILES | Potency | activity change, negative = inhibition |
| --- | --- | --- |
| CCOc1ccc(NC(=O)CSc2nc3[nH]ncc3c(=O)n2-c2ccccc2OC)cc1 | inconclusive: 10.3 µM [falling, partial curve] |  |
| CSc1cccc(NC(=O)Cc2ccccc2[N+](=O)[O-])c1 | inconclusive: 29.1 µM [falling, single point] |  |
| CCNc1nc(SCCOc2ccc(C)cc2)nc(N(C)C)n1 | inconclusive: 29.1 µM [falling, single point] |  |

The list goes on:

| SMILES | Potency | activity change, negative = inhibition |
| --- | --- | --- |
| CCCCC(=O)Oc1c(S(=O)(=O)c2ccccc2)c(C)nn1C(C)(C)C | inconclusive: 18.4 µM [falling, single point] |  |
| CCCCN(CCCC)CCNC(=O)c1cn(C)c2ccc(S(=O)(=O)N3CCCC3)cc2c1=O | inconclusive: 23.1 µM [activator, single point] |  |
| Cc1cccc(-c2nc(CN3CCCC(C(=O)NC4CCC(C)CC4)C3)c(C)o2)c1 (stereo not given) | inconclusive: 20.6 µM [falling, single point] |  |
| CN(c1ccc(C(=O)N2CCCCC2)cc1)S(=O)(=O)c1ccccc1 | inconclusive: 16.4 µM [falling, partial curve, poor fit] |  |
| COc1cc(C(=O)c2ccccc2C(=O)O)c(OC)c2c1CCCC2 |  | inactive: -8.42% |
| O=C(Nc1nnc(-c2ccccc2)o1)c1nc2ccccc2s1 | inconclusive: 29.1 µM [falling, single point] |  |
| Cc1cccc(-n2nnc3c(=O)n(Cc4ccccn4)cnc32)c1 |  | inactive: -4.61% |
| Cc1ccc(NC(=O)COC(=O)CN2C(=O)NC3(CCCC3)C2=O)cc1S(=O)(=O)N(C)C | inconclusive: 29.1 µM [activator, single point] |  |
| CC(=O)CSc1nsc(SCC(C)=O)c1C#N |  | inactive: 16.7% |
| O=C(Nc1cccc(Cl)c1N1CCCC1)c1ccc([N+](=O)[O-])o1 | inconclusive: 29.1 µM [falling, single point] |  |
| O=S(=O)(c1ccccc1)N1N=C(c2ccc(Br)cc2)CC1c1ccco1 (stereo not given) | inconclusive: 29.1 µM [falling, single point] |  |
| CC(=O)NC(c1cc(Cl)c2cccnc2c1O)C(C)C (stereo not given) | active: 20.6 µM |  |
| Cc1cccc(C)c1NC(=O)CSCc1cnn(-c2ccccc2)c1-n1cccc1 | inconclusive: 16.4 µM [falling, single point] |  |
| O=C1NC[C@@H](Cc2cccc3ccccc23)N(CC2(c3ccccc3)CC2)C1=O | active: 20.6 µM |  |
| O=C1C=C(c2ccccc2)CC(c2ccc(F)cc2)C1 (stereo not given) |  | inactive: 0.944% |
| Cc1cnc(C(=O)NC2CCSc3ccccc32)cn1 (stereo not given) | inconclusive: 0.259 µM [activator, full curve] |  |
| O=C1N=c2ccccc2=C1c1sc(=O)[nH]c1O | inconclusive: 7.31 µM [falling, partial curve, poor fit] |  |
| O=C(CSc1cccc2cccnc12)NCc1ccco1 |  | inactive: -12% |
| O=C(NC(=S)NCCSc1ccccc1)c1cccnc1 | inconclusive: 29.1 µM [activator, single point] |  |
| COc1ccc(C)cc1NC(=O)CCn1nc(C)cc1C | inconclusive: 8.2 µM [activator, partial curve] |  |
| COc1ccccc1NC(=O)Nc1nc(CC(=O)N2CCN(c3ccc(F)cc3)CC2)cs1 | inconclusive: 29.1 µM [falling, single point] |  |
